± gives the half width of the 95% confidence interval. The two proteases of the assay disagree for many of these sequences.
Legend:
[1] = folding stability dG unfold (combined trypsin and chymotrypsin); higher = more stable
Description: (§1)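 Folding stability of de novo designed mini-proteins (<80 aa, no Cys; designed by TrROS, TrMRF, ProteinMPNN and the joint model) was measured by cDNA display proteolysis with trypsin and chymotrypsin. Each protease was used at 11 concentrations in a threefold dilution series plus a no-protease condition. K50 was inferred by Bayesian fitting of sequencing counts, and dG unfold was derived against a sequence-predicted unfolded-state K50 (Tsuboyama et al. method). Sequences shown include variable-length N-terminal GS-type padding (SAGGSAGG...) inside a display construct carrying a PA tag. Rows were kept only if the AF2 dimer inter-PAE was >15, to exclude likely homo-oligomers.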

[2] = folding stability dG unfold from trypsin proteolysis; higher = more stable
Description: as §1

[3] = folding stability dG unfold from chymotrypsin proteolysis; higher = more stable
Description: as §1

Row | Sequence | folding stability dG unfold [1] [kcal/mol] | folding stability dG unfold [2] [kcal/mol] | folding stability dG unfold [3] [kcal/mol]
1 | SAGGSAGGSLIERLADELQEQGFEIEVKRVEIEPDPNGHLSIRFEVRIEPPPPPPSPEERDKNSAGGSAGGS [r12_120_TrROS] | 1.04 ± 0.3 | 2 ± 0.16 | –
2 | SAGGSAGGSATVDEVIKEAREEAREEHPNYPPGQTHTIKIRDPDNGEKVKIRFTNDGKIEISAGGSAGGSAG [r3_441_TrROS] | < -1 | -0.0324 ± 0.057 | –
3 | SAPPYVYITIRVEVERNPNGQRKHKVDVTVRFPDPNMTLEQALDMAKEAADNFAEENGYDVKIDDIEIMSAG [r14_190_TrROS] | – | 2.16 ± 0.43 | –
4 | SAGGSAGGSMVTTSIDPSGTAKITVTDGGGVPVSTATIPVDPNAILTYDPNNSSISTFSPVSSSAGGSAGGS [r12_1002_JUSTAS] | -0.442 ± 0.24 | 0.519 ± 0.032 | –
5 | SAGGSAGGSAGGGVAVLKIDLETGEITVEPAHPDTEVPVDFDGDSVIAVVRGDKIEIRPSAGGSAGGSAGGS [r10_817_TrMRF] | 0.669 ± 0.12 | 1.28 ± 0.089 | –
6 | SAGGSAGGSAGKFKPGEEIVIVAKTKEEADKLKKLFPNAKIKVIPVEKKVYVDKKTKKAKSAGGSAGGSAGG [r17_126_TrROS_Hall] | -0.0651 ± 0.59 | 1.12 ± 0.18 | –
7 | SAGGSRQVIEWEFKDPKNGKPFEISIEYDEENGVPMVEIRDRNGEPNAVVPVPPDNADEALEKFGISAGGSA [r2_115_TrROS] | < -1 | -0.903 ± 0.46 | –
8 | MPEEWKVIAEIKIEVEVDGKTYEITVEVYYNKETGKVVVKVEVYDKETGKKSEELKKLAEELVKKLLEALKS [r1_229_TrROS_Hall] | > 6 | 2.89 ± 0.31 | –
9 | SAGGSAGGSAGGMTVLTLTRRNYIDPARPVTITITLPLPLPPLPFPEALTTPSGIFGPLGSAGGSAGGSAGG [r11_419_JUSTAS] | 0.42 ± 0.16 | – | 1.21 ± 0.18
10 | SAGGSVTLPPEEARAYAEAHPDRDLVLSMRPDDSTVTLELSVDPAAPGALSVRRREVFDPAGNATVVDSAGG [r13_481_JUSTAS] | -0.182 ± 0.15 | – | 0.308 ± 0.13
11 | SAGGSAEAEAEVEFDPETGRLRVRVRFPDSDETVEREIEVPPVPPIPPEDVERARRAAAEGRESDLSAGGSA [r15_631_TrMRF] | 1.5 ± 0.051 | – | 1.998 ± 0.018
12 | SAGGSAGGSAGGPMKVFSYTIKPGGEVLNPIPLPPGSVVTTSPDPATGTQNVTIEVPELLSAGGSAGGSAGG [r11_32_JUSTAS] | 1.14 ± 0.18 | – | 2.41 ± 0.041
13 | STLEDFVVTSTSDKTLPDGSPETVETAGDYTLTFNPATGEYTLYKGDKEVLKKLVPAKGPDPTNPAVVARSA [r9_1065_JUSTAS] | 0.984 ± 0.04 | – | 1.55 ± 0.045
14 | SKPIPVKITIETKTNPNGEPITTITIDKGDKTYSLPLGNAKILEIDPEKQYIIIYNPETGSILILKPSDLSA [r9_1186_TrMRF] | 2.95 ± 0.058 | – | 3.14 ± 0.06
15 | SAGGSAGGSAGGPLTLVITDLPLEEAEALAARLRALGIDVEVFVVPVEREPRPLEPVARSAGGSAGGSAGGS [r10_361_TrMRF] | 1.87 ± 0.091 | – | 2.41 ± 0.046
16 | SAGGSAMILDIPDDETLTIELPGDATARVEVRSGPDGGRLVRVVVEARAGAGPVVAPAEILLPPEGSAGGSA [r15_280_TrMRF] | 0.701 ± 0.08 | – | 1.12 ± 0.036
17 | SAGMSPEERERLERLRRELERLEREEELLRERAEELGLSEEEAARREREERLRRLREELERLERRPEESAGG [r19_305_TrROS_Hall] | 3.02 ± 0.11 | – | 3.33 ± 0.047
18 | SAGGSAATTEYEETVVDPNNPEPVKVKRTVTETVPPNPVVRTEETVTYPDGTVTRPTSVSTTPTAVSAGGSA [r15_828_JUSTAS] | 0.724 ± 0.19 | – | 1.24 ± 0.084
19 | SGAVAEELKAAGYPVLSVEFDPETGTLTVEVAVEDPAQPVARTLTITIPLPPDATPEEATAAVRAAVAAASA [r9_184_JUSTAS] | 2.61 ± 0.042 | – | 2.924 ± 0.01
20 | SAGGMTMTLTHPDSDTVFTLPPEIQKAVDSGDEEAIAALPPEIRAALAAVAERTVTPLPSAVATTTAGSAGG [r13_233_JUSTAS] | 0.883 ± 0.16 | – | 1.44 ± 0.14
21 | SAGGSAGGSAGPSVSVSPTSLTVTFPLGDATLTITFDPLSGGVSVSVSPLPVAPLAPDEASAGGSAGGSAGG [r11_788_TrMRF] | 1.25 ± 0.16 | – | 1.67 ± 0.073

An excerpt from above, showing only folding stability dG unfold [1] [kcal/mol].
Row	Sequence	folding stability dG unfold [1] [kcal/mol]
4	SAGGSAGGSMVTTSIDPSGTAKITVTDGGGVPVSTATIPVDPNAILTYDPNNSSISTFSPVSSSAGGSAGGS [r12_1002_JUSTAS]	-0.442 ± 0.24
5	SAGGSAGGSAGGGVAVLKIDLETGEITVEPAHPDTEVPVDFDGDSVIAVVRGDKIEIRPSAGGSAGGSAGGS [r10_817_TrMRF]	0.669 ± 0.12
6	SAGGSAGGSAGKFKPGEEIVIVAKTKEEADKLKKLFPNAKIKVIPVEKKVYVDKKTKKAKSAGGSAGGSAGG [r17_126_TrROS_Hall]	-0.0651 ± 0.59

Carrying on:

Row | Sequence | folding stability dG unfold [1] [kcal/mol] | folding stability dG unfold [2] [kcal/mol] | folding stability dG unfold [3] [kcal/mol]
22 | SAGGSAGGSAGGTVRPGQTIPDVPVKIRNPDNNKEHTRTFPPGENIADLANKNGFEIEPSAGGSAGGSAGGS [r10_202_TrROS] | 0.723 ± 0.16 | – | 1.48 ± 0.13
23 | SAGGSAGGSAGELTLELRVDTPEEAVRLAARLRELGYDVEVEVAPDPETGTYTVRLRVRLPASAGGSAGGSA [r18_455_TrMRF] | 3.93 ± 0.094 | – | 4.3 ± 0.051
24 | SAGGSAGGSAGSMTVTVDVTISPLPESDEVLVTITTYVNGVPVTTPVRVDPETAAALIAASAGGSAGGSAGG [r11_700_JUSTAS] | 1.44 ± 0.14 | – | 1.95 ± 0.083
25 | SAGGMIKIKNKKTGKEIEITEINKENPVVKIKVKNKNGETKEIEVPKSLDEIVEELKKKGVEVEIEPSAGGS [r16_748_TrROS_Hall] | 0.947 ± 0.44 | – | 1.5 ± 0.21
26 | STLEQILDAIESMPPGWVFRIKIHHPNGEPHEHRFNMTYDDIKAQLENMIDHHPGQPIKIKIEFMPPEDFSA [r9_37_TrROS] | 3.38 ± 0.064 | – | 3.72 ± 0.077
27 | SAGGSAGGSAGGSENGVQPPVRPRVTVRFPDDGKWWEFTTLEELEELIKDGNFEIDEITSAGGSAGGSAGGS [r10_520_TrROS] | 0.703 ± 0.04 | – | 1.17 ± 0.029
28 | SAGGSAGGSAGGGPSSSTSVSTSTTPGEGERIVTTTTFYPSNGTTTTTTTTVDPATGAGGSAGGSAGGSAGG [r7_231_JUSTAS] | 0.494 ± 0.11 | – | 1 ± 0.036
29 | SAGGMILKTEVTEVDPATGLVTVRYEVSPEDLKKLGPLNLPGVTETRYEPGKNTITAVMPRAAAEALSAGGS [r16_614_JUSTAS] | 0.645 ± 0.063 | – | 1.09 ± 0.051
30 | SAGGSAGGSAGGMIVPPDLSVTVTFPDGSVRTLTLNSDEDLVETLEKPVPPDVDVVAVAASAGGSAGGSAGG [r7_223_JUSTAS] | 0.183 ± 0.17 | – | 1.02 ± 0.12
31 | SAGGSAGGSMKPSLRVLEVPVPVPPGESPEAVAARLAAEPRVRVLEVLEVDPATGRVTLLVVESAGGSAGGS [r12_712_JUSTAS] | 0.629 ± 0.044 | – | 1.1 ± 0.044
32 | SAGGSAGGSAGGALTDAVPLGESEAPLPLPDGSQLRVRRVTVRDPVTGETATFERVELLPSAGGSAGGSAGG [r7_546_TrMRF] | 0.476 ± 0.043 | – | 1.11 ± 0.05
33 | SYLELTFTLPATGAVVRLRFDPTTGRAEVVARPPTGPAVGGSWEVRGDRLRVVLYDPSGRPLATLELPLASA [r9_665_TrMRF] | 3.45 ± 0.097 | – | 3.81 ± 0.051
34 | SAGGSAGGSAGGSLVSTSPLPSSSTLVTEKGPSPEVTVTVVTVKPGGSRSVTTLPVSESSAGGSAGGSAGGS [r10_140_JUSTAS] | -0.143 ± 0.12 | – | 0.474 ± 0.057
35 | SAGGNWLIKIEVENLPPGAHIMFPNGRSIPPGKEFTIPLDAPFDNIMVHGPDGKIIDVERVPLDKPDDSAGG [r13_441_TrROS] | 0.74 ± 0.19 | – | 1.26 ± 0.089
36 | SAGGVPVPPEVEYPISPEAVELAEKLAPELGAKNFKVTVVSVEPGYITVEITLPDTGKTVTVTIPLGSAGGS [r16_281_JUSTAS] | 1.82 ± 0.053 | – | 1.987 ± 0.015
37 | SVPADAPPGYVAEKVEIVIKVPKSLLDKNGKIKPEVKKEAEEEAEKLKEEIKKKYPDVNVKDVGITIELESA [r9_943_JUSTAS] | 0.358 ± 0.69 | – | 1.12 ± 0.12
38 | SAGGKVVVVPFPGPVTPETVAALAAKFIEEGLYDVPLVVVSEVEGRRPDGRPGRRRFGFVYVAKAPKSAGGS [r16_44_TrMRF] | 1.59 ± 0.1 | – | 1.98 ± 0.13
39 | SAGGSAGGSAGGVVSRLPEDAILVTTTTLQTVDFELPDGTLRTEKRTTTTVTILPPELSSAGGSAGGSAGGS [r10_383_JUSTAS] | 0.628 ± 0.12 | – | 1.13 ± 0.038
40 | SAGGSAVRIKVWPPNGKEQWIPIPSSMTPSTVQEMAENLADDWQEQNGNKNVKVEVDPDNGWIRIRSAGGSA [r15_33_TrROS] | -0.0158 ± 0.066 | – | 0.197 ± 0.084
41 | SAGKLKPGDPVKIKIEIERDPGNGMVRVTYKIEFKDGMYVTMIIPPNGPIHVEIFNPDDGKEREETIPLSAG [r5_55_TrROS] | 2.46 ± 0.26 | – | 2.67 ± 0.096

— the supplement of paper PMC12764529
